Results as given in the supplement of paper PMC10849652.
This is one part of the list.

The chains behind the UniProt entries cited, without tags or fusion partners. Where a name states a change or a piece, a line headed by the entry shows the natural chain unless it says otherwise.
UniProt Q9H2C2: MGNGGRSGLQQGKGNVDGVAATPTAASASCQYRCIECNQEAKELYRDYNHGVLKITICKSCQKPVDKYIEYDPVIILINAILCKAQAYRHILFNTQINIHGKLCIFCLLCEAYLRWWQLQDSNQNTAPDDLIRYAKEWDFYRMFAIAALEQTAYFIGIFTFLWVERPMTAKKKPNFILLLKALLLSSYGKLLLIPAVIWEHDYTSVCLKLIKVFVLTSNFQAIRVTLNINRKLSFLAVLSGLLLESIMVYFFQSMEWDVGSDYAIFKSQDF
UniProt Q6VMQ6: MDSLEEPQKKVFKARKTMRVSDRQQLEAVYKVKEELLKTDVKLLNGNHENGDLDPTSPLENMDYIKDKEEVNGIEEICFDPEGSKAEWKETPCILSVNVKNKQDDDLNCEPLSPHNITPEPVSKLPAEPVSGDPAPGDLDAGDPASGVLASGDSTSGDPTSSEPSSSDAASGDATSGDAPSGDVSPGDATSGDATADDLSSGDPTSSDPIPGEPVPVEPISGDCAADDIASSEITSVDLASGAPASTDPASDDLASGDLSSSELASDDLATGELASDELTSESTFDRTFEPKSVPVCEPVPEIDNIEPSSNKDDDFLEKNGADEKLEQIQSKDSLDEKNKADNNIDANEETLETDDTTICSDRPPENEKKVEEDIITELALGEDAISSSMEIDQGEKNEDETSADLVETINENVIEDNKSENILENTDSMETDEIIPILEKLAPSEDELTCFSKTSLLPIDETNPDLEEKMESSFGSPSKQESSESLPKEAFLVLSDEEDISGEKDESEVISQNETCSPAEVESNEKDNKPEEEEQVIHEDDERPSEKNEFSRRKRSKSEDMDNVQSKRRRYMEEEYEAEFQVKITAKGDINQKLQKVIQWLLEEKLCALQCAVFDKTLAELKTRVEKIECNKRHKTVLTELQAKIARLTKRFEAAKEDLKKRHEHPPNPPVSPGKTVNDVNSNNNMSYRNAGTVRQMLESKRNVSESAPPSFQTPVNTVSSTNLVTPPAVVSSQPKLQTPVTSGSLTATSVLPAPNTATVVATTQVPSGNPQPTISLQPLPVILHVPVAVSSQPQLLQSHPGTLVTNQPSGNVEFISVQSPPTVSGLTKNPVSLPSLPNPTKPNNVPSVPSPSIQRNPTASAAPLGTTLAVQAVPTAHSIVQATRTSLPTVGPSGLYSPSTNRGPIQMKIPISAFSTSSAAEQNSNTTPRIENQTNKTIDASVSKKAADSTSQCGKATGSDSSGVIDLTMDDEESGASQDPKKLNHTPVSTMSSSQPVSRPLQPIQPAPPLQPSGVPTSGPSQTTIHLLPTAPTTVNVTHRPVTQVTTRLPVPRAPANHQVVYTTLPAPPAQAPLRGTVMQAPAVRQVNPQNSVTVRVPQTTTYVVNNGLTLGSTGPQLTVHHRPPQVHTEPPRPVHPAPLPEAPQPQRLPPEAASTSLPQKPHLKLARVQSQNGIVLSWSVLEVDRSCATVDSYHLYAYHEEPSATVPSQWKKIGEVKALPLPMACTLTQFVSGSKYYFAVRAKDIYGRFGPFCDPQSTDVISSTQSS
UniProt P20020: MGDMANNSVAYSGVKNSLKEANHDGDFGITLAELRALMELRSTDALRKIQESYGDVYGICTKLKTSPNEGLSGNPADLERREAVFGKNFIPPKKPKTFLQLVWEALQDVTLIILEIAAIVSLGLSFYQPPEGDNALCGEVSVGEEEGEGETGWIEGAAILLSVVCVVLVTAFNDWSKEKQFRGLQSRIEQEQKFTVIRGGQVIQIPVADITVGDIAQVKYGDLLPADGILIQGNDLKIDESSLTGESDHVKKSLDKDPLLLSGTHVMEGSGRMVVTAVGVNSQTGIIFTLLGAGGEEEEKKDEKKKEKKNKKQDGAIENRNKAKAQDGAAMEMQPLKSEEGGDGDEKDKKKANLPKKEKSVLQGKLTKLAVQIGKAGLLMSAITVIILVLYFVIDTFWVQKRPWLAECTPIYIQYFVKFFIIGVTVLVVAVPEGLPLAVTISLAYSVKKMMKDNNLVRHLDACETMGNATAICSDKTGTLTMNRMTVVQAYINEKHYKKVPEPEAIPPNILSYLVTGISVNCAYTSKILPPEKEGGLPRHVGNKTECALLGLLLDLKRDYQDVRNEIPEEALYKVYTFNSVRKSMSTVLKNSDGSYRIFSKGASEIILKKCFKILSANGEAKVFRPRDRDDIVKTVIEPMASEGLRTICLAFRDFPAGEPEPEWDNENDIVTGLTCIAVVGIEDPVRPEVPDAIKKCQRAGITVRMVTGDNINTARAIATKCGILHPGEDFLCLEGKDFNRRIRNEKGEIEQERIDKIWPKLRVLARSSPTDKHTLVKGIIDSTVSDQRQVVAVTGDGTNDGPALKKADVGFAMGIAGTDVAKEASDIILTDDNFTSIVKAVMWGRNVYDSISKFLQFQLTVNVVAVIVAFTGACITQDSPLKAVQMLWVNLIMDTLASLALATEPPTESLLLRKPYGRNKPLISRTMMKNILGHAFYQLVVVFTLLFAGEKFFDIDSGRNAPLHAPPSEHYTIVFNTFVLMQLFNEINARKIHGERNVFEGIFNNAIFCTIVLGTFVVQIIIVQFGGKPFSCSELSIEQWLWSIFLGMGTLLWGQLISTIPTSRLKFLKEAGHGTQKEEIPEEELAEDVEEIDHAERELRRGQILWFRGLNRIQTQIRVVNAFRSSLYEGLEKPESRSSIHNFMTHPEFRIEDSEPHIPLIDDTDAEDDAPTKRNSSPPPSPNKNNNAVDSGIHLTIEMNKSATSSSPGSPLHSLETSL
UniProt Q04656: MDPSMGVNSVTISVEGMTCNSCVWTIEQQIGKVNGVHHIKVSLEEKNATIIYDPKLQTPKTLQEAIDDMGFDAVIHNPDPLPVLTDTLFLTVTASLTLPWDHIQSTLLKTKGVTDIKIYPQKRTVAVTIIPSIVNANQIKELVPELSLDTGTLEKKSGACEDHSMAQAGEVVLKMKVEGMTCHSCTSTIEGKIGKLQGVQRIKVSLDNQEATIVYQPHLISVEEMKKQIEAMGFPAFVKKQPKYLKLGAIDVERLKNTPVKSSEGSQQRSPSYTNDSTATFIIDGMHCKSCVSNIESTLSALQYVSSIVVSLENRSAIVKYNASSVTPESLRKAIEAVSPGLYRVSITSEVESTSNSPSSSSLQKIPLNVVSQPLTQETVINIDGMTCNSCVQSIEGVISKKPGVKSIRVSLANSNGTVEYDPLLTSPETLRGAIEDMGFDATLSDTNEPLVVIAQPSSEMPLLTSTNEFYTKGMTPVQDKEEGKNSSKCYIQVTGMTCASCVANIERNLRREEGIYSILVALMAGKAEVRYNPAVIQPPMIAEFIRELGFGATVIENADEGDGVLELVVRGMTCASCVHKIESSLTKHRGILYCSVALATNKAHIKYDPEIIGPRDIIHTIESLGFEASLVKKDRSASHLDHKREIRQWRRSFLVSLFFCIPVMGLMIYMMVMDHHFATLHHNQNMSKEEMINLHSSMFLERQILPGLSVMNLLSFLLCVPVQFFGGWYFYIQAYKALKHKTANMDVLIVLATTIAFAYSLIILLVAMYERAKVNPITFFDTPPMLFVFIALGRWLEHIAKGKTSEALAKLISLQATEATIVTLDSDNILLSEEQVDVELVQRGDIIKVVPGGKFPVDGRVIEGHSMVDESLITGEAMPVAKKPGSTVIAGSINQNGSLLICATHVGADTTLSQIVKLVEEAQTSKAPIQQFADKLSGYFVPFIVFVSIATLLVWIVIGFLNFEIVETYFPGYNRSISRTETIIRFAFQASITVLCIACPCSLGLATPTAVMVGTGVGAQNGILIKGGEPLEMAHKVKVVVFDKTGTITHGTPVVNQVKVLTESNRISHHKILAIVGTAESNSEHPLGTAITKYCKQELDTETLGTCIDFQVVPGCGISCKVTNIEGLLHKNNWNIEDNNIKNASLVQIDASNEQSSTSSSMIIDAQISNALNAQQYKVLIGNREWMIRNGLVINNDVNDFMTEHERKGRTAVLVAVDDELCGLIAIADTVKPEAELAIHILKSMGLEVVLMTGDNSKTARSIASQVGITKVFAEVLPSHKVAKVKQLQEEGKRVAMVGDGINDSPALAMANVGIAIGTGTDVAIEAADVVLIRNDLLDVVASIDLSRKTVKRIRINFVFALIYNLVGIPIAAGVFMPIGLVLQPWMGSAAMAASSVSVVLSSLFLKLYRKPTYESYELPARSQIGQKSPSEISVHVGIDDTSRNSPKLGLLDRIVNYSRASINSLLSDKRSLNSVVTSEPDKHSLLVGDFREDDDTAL
UniProt P54259: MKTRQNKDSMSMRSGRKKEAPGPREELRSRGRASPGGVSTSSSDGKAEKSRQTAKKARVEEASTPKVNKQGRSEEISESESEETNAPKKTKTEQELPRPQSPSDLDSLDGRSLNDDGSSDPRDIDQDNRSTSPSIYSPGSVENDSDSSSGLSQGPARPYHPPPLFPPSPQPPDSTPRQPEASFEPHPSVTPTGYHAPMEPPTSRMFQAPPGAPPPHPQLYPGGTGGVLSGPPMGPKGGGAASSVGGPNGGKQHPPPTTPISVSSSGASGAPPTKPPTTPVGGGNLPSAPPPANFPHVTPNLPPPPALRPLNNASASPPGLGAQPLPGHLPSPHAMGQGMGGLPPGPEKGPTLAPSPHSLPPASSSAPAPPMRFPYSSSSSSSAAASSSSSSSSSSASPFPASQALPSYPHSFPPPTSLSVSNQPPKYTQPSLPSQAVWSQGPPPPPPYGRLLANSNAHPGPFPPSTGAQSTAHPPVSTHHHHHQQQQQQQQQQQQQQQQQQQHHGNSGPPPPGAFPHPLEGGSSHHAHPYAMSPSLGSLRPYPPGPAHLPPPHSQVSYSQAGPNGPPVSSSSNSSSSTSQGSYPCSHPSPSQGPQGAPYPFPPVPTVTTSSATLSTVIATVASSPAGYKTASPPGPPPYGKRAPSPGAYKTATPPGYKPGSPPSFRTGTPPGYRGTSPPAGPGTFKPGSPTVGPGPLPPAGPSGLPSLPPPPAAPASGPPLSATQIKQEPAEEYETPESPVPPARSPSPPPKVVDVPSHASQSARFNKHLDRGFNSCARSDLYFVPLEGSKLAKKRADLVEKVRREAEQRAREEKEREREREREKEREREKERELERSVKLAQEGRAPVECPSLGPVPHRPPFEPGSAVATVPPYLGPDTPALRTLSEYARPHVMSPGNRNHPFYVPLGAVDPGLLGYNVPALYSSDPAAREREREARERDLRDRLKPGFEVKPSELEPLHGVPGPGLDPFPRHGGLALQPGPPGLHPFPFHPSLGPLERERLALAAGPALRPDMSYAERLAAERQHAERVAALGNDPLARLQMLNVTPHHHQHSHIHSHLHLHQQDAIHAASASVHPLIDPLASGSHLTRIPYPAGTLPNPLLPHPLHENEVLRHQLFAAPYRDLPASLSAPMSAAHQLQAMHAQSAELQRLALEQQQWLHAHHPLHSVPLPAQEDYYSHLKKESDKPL
UniProt Q8N9N2: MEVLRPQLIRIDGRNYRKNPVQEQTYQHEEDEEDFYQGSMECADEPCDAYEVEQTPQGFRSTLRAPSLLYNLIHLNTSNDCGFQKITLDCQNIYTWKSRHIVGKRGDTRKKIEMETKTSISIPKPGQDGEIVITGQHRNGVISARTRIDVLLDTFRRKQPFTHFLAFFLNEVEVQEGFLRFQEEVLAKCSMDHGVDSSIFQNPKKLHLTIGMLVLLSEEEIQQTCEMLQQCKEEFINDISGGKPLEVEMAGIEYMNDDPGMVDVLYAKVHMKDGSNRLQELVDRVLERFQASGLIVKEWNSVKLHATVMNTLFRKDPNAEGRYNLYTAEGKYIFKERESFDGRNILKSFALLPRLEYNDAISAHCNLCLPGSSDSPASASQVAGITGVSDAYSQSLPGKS
UniProt Q6NXE6: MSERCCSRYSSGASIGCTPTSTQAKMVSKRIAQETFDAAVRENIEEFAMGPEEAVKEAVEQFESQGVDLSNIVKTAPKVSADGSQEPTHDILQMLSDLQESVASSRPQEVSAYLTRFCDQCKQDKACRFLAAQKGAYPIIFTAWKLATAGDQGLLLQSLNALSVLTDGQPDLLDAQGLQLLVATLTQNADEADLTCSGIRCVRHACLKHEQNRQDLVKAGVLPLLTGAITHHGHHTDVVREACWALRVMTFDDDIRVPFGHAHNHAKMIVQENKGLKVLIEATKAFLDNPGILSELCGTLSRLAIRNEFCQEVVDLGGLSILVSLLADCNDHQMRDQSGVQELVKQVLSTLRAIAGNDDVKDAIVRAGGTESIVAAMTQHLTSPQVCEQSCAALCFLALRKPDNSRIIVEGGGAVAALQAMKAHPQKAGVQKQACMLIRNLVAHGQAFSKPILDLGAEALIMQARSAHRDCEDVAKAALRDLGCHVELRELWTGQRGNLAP
UniProt P40616: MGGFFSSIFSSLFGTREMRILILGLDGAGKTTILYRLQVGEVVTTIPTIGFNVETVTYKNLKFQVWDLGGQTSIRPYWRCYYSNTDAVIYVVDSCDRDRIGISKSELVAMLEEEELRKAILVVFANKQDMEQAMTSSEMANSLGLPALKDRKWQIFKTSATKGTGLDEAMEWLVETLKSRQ

What was measured:
Assay in all cases: log2 fold change, soluble protein after heating vs DMSO (PISA); higher = thermal stabilisation; K562 cells, 10 uM, 30 min; active = over 0.2 and 3.5 SD of the protein, either way, in both replicates (recomputed)
[1] = compound: C1=CC=C(C=C1)[C@H](COC2=CC3=C(C=C2)NC(=O)N3)NC(=O)C4=CC=CN(C4=O)CC5=CC(=C(C=C5)F)F
Summary of the method: (§1)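 K562 cells at 2×10^6 cells/mL were treated with 10 μM compound for 30 min. Aliquots were heated for 3 min across 48°C-58°C, pooled, and extracted in PBS with 0.5% NP-40 at 4°C; soluble protein was the supernatant after 21,000xg for 90 min. Soluble protein was quantified by TMTpro 16plex LC-MS/MS with channel sums equalised, and reported as log2 fold change in thermal stability against DMSO controls, with values from duplicates.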

[2] = compound: CC1=C(SC2=C1C(=N[C@H](C3=NN=C(N32)C)CC(=O)N)C4=CC=C(C=C4)Cl)C
Summary of the method: as §1

[3] = compound: CC1=C2C(=CC=C1)N=C(N(C2=O)C3=CC=CC=C3C)CN4C=NC5=C(N=CN=C54)N
Summary of the method: as §1

[4] = compound: Cc1sc2c(c1C)C(c1ccc(Cl)cc1)=N[C@@H](CC(=O)OC(C)(C)C)c1nnc(C)n1-2
Summary of the method: as §1

[5] = compound: c1ccc([C@@H]2C[C@H]2NC2CCNCC2)cc1
Summary of the method: as §1

Measured: log2 fold change

ATP12A isoform 2 (UniProt P54707)
inactive: [1] -0.027 | [2] 0.062 | [3] 0.052 | [4] -0.044 | [5] -0.043

ARV1 (UniProt Q9H2C2)
inactive: [1] -0.007 | [2] 0.041 | [3] 0.06 | [4] 0.005 | [5] 0.032

ATF7IP isoform 4 (UniProt Q6VMQ6)
inactive: [1] -0.241 | [2] 0.001 | [3] 0.149 | [4] 0.207 | [5] 0.045

ATP2B1 isoform 1 (UniProt P20020)
inactive: [1] -0.009 | [2] 0.002 | [3] 0.029 | [4] 0.032 | [5] 0.036

ATP7A isoform 3 (UniProt Q04656)
inactive: [1] 0.021 | [2] 0.044 | [3] 0.07 | [4] 0.02 | [5] -0.021

ATN1 (UniProt P54259)
inactive: [1] 0.009 | [2] -0.044 | [3] 0.03 | [4] 0.031 | [5] -0.055

ASCC1 isoform 2 (UniProt Q8N9N2)
inactive: [1] -0.033 | [2] 0.001 | [3] 0 | [4] 0.034 | [5] 0.008

ARMC6 (UniProt Q6NXE6)
inactive: [1] -0.044 | [2] -0.125 | [3] -0.039 | [4] 0.203 | [5] -0.026

ARL1 (UniProt P40616)
inactive: [1] -0.084 | [2] 0.057 | [3] 0.079 | [4] -0.1 | [5] -0.048
